Laboratory results: the supplement of paper PMC4604168 (melanoma cell lines)
The other results are listed elsewhere or left out. Repeats are few or missing, and single values can be far off.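 Cells were imaged in 1,536-well plates, and nuclei stained with an antibody against cleaved PARP were counted against all DNA-stained nuclei to give the apoptosis fraction. Screening doses were chosen to leave most cells alive, and resting and induced cleaved-PARP levels differ strongly between cell lines.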

Each compound was assayed on SkMel5 (assay: cleaved PARP positive nuclei fraction relative to DMSO control; melanoma cells; higher = more apoptosis). Settings: library dose: low library concentration; 72 h.

With `NC1(c2ccc(-c3nc4ccn5c(=O)[nH]nc5c4cc3-c3ccccc3)cc2)CCC1` + Cc1ccc(NC(=O)c2cccc(N(C)C)c2)cc1NC(=O)c1ccc(O)cc1 [ZM336372] (first compound 0.4 µM, partner dose 2 µM) as the compound, how does the “cleaved PARP positive nuclei fraction” value read?
Its value is 35.4%.

With `COc1ccc(C2=N[C@@H](c3ccc(Cl)cc3)[C@@H](c3ccc(Cl)cc3)N2C(=O)N2CCNC(=O)C2)c(OC(C)C)c1` [Nutlin-3] + C[C@@H]1CCN(C(=O)CC#N)C[C@@H]1N(C)c1ncnc2[nH]ccc12 [CP690550] (first compound 0.1 µM, partner dose 1 µM) as the compound, how does the “cleaved PARP positive nuclei fraction” value read?
The value was 75.9%.

For `CS(=O)(=O)c1ccc(C(=O)Nc2ccc(Cl)c(-c3ccccn3)c2)c(Cl)c1` [vismodegib] + CC(C)(C)c1cnc(CSc2cnc(NC(=O)C3CCNCC3)s2)o1 [SNS-032] (first compound 1 µM, partner dose 0.01 µM), which “cleaved PARP positive nuclei fraction” value is on record?
The value was 109%.

`NC1(c2ccc(-c3nc4ccn5c(=O)[nH]nc5c4cc3-c3ccccc3)cc2)CCC1` + Cn1cc(/C=C2\C(=O)Nc3cccnc32)c2ccccc21 [GW441756] (first compound 0.4 µM, partner dose 0.4 µM) was tested. Which “cleaved PARP positive nuclei fraction” value did it give?
Its value is 93.5%.

Which “cleaved PARP positive nuclei fraction” value does the source give for `Cn1cnc2c(F)c(Nc3ccc(Br)cc3Cl)c(C(=O)NOCCO)cc21` [selumetinib] + O=C(Nc1cccc(Cl)c1)Nc1ncc(CCNc2ncnc3ccsc23)s1 [SNS314] (first compound 0.015 µM, partner dose 0.0008 µM) here?
The value was 61.2%.

`CC1(C)CCC(c2ccc(Cl)cc2)=C(CN2CCN(c3ccc(C(=O)NS(=O)(=O)c4ccc(N[C@H](CCN5CCOCC5)CSc5ccccc5)c(S(=O)(=O)C(F)(F)F)c4)cc3)CC2)C1` + CCN(CC)CCCCNc1ncc2cc(-c3cc(OC)cc(OC)c3)c(NC(=O)NC(C)(C)C)nc2n1 [PD173074] (first compound 0.4 µM, partner dose 0.1 µM) was tested. Which “cleaved PARP positive nuclei fraction” value did it give?
Its value is 103%.

With `C[C@]1(O)C[C@@H](c2nc(-c3ccc4ccc(-c5ccccc5)nc4c3)c3c(N)nccn32)C1` + COc1cc2ncnc(Nc3ccc(Oc4ccccc4)cc3)c2cc1OC [SrcI1] (first compound 0.4 µM, partner dose 2 µM) as the compound, how does the “cleaved PARP positive nuclei fraction” value read?
Its value is 71.9%.

With `CC1(C)CCC(c2ccc(Cl)cc2)=C(CN2CCN(c3ccc(C(=O)NS(=O)(=O)c4ccc(N[C@H](CCN5CCOCC5)CSc5ccccc5)c(S(=O)(=O)C(F)(F)F)c4)cc3)CC2)C1` + CCc1ccc(CCOc2ccc(CC3SC(=O)NC3=O)cc2)nc1 [pioglitazone] (first compound 0.4 µM, partner dose 2 µM) as the compound, how does the “cleaved PARP positive nuclei fraction” value read?
Its value is 560%.

How did the “cleaved PARP positive nuclei fraction” value turn out when `C[C@@H](N)c1ccc(C(=O)Nc2ccnc3[nH]ccc23)cc1` + CCN(CC)CCCCNc1ncc2cc(-c3cc(OC)cc(OC)c3)c(NC(=O)NC(C)(C)C)nc2n1 [PD173074] (first compound 0.4 µM, partner dose 0.1 µM) was run?
Its value is 180%.

With `CCN(CC)CCNC(=O)c1c(C)[nH]c(/C=C2\C(=O)Nc3ccc(F)cc32)c1C` [sunitinib] + Cc1cc(N2CCOCC2)cc2[nH]c(-c3c(NC[C@@H](O)c4cccc(Cl)c4)cc[nH]c3=O)nc12 [BMS536924] (first compound 0.4 µM, partner dose 0.2 µM) as the compound, how does the “cleaved PARP positive nuclei fraction” value read?
The value was 74.7%.

How did the “cleaved PARP positive nuclei fraction” value turn out when `NC(=O)c1ccc(N(C(N)=O)c2c(F)cccc2F)nc1-c1ccc(F)cc1F` + O=C(Nc1cccc(Cl)c1)Nc1ncc(CCNc2ncnc3ccsc23)s1 [SNS314] (first compound 0.4 µM, partner dose 0.0008 µM) was run?
Its value is 59.9%.

For `Cn1cnc2c(F)c(Nc3ccc(Br)cc3Cl)c(C(=O)NOCCO)cc21` [selumetinib] + Cc1ccc(NC(=O)c2cccc(N(C)C)c2)cc1NC(=O)c1ccc(O)cc1 [ZM336372] (first compound 0.015 µM, partner dose 2 µM), which “cleaved PARP positive nuclei fraction” value is on record?
Its value is 92.2%.

How did the “cleaved PARP positive nuclei fraction” value turn out when `CS(=O)(=O)c1ccc(C(=O)Nc2ccc(Cl)c(-c3ccccn3)c2)c(Cl)c1` [vismodegib] + NC(=O)Nc1cc(-c2cccc(F)c2)sc1C(=O)N[C@H]1CCCNC1 [AZD7762] (first compound 1 µM, partner dose 0.02 µM) was run?
Its value is 43.8%.

Which “cleaved PARP positive nuclei fraction” value does the source give for `Cn1cnc2c(F)c(Nc3ccc(Br)cc3Cl)c(C(=O)NOCCO)cc21` [selumetinib] + Cc1cc(N2CCOCC2)cc2[nH]c(-c3c(NC[C@@H](O)c4cccc(Cl)c4)cc[nH]c3=O)nc12 [BMS536924] (first compound 0.015 µM, partner dose 0.2 µM) here?
The value was 192%.

How did the “cleaved PARP positive nuclei fraction” value turn out when `Cn1cnc2c(F)c(Nc3ccc(Br)cc3Cl)c(C(=O)NOCCO)cc21` [selumetinib] + Oc1nc(-c2ccc(C(F)(F)F)cc2)nc2c1CSCC2 [XAV939] (first compound 0.015 µM, partner dose 2 µM) was run?
The value was 84.2%.

For `COc1ccc(C2=N[C@@H](c3ccc(Cl)cc3)[C@@H](c3ccc(Cl)cc3)N2C(=O)N2CCNC(=O)C2)c(OC(C)C)c1` [Nutlin-3] + Oc1nc(-c2ccc(C(F)(F)F)cc2)nc2c1CSCC2 [XAV939] (first compound 0.1 µM, partner dose 2 µM), which “cleaved PARP positive nuclei fraction” value is on record?
The value was 73.4%.

Which “cleaved PARP positive nuclei fraction” value does the source give for `NC(=O)c1ccc(N(C(N)=O)c2c(F)cccc2F)nc1-c1ccc(F)cc1F` + COc1cc2c(Oc3ccc4[nH]c(C)cc4c3F)ncnc2cc1OCCCN1CCCC1 [cediranib] (first compound 0.4 µM, partner dose 0.4 µM) here?
The value was 169%.

Which “cleaved PARP positive nuclei fraction” value does the source give for `Cn1cnc2c(F)c(Nc3ccc(Br)cc3Cl)c(C(=O)NOCCO)cc21` [selumetinib] + CCN(CC)CCCCNc1ncc2cc(-c3cc(OC)cc(OC)c3)c(NC(=O)NC(C)(C)C)nc2n1 [PD173074] (first compound 0.015 µM, partner dose 0.1 µM) here?
The value was 71%.

`CN(c1ncccc1CNc1nc(Nc2ccc3c(c2)CC(=O)N3)ncc1C(F)(F)F)S(C)(=O)=O` + Oc1nc(-c2ccc(C(F)(F)F)cc2)nc2c1CSCC2 [XAV939] (first compound 0.08 µM, partner dose 2 µM) was tested. Which “cleaved PARP positive nuclei fraction” value did it give?
The value was 208%.

Which “cleaved PARP positive nuclei fraction” value does the source give for `Cn1cnc2c(F)c(Nc3ccc(Br)cc3Cl)c(C(=O)NOCCO)cc21` [selumetinib] + COc1ccc(COc2ccc(Cc3cnc(N)nc3N)cc2OC)cc1 [GW2580] (first compound 0.015 µM, partner dose 1 µM) here?
The value was 58.9%.

How did the “cleaved PARP positive nuclei fraction” value turn out when `NC(=O)c1ccc(N(C(N)=O)c2c(F)cccc2F)nc1-c1ccc(F)cc1F` + O=C(O)c1ccc(-c2c[nH]c3ncc(-c4ccccc4)cc23)cc1C1CCCC1 [GSK650394] (first compound 0.4 µM, partner dose 0.16 µM) was run?
The value was 143%.

How did the “cleaved PARP positive nuclei fraction” value turn out when `COc1ccc(C2=N[C@@H](c3ccc(Cl)cc3)[C@@H](c3ccc(Cl)cc3)N2C(=O)N2CCNC(=O)C2)c(OC(C)C)c1` [Nutlin-3] + NC(=O)Nc1cc(-c2cccc(F)c2)sc1C(=O)N[C@H]1CCCNC1 [AZD7762] (first compound 0.1 µM, partner dose 0.02 µM) was run?
Its value is 150%.

With `CS(=O)(=O)c1ccc(C(=O)Nc2ccc(Cl)c(-c3ccccn3)c2)c(Cl)c1` [vismodegib] + Cc1ccc(NC(=O)c2cccc(N(C)C)c2)cc1NC(=O)c1ccc(O)cc1 [ZM336372] (first compound 1 µM, partner dose 2 µM) as the compound, how does the “cleaved PARP positive nuclei fraction” value read?
The value was 94.2%.

How did the “cleaved PARP positive nuclei fraction” value turn out when `CCCCCCCCc1ccc(CCC(N)(CO)CO)cc1` [fingolimod] + Cn1cc(/C=C2\C(=O)Nc3cccnc32)c2ccccc21 [GW441756] (first compound 2 µM, partner dose 0.4 µM) was run?
Its value is 89.2%.

`NC1(c2ccc(-c3nc4ccn5c(=O)[nH]nc5c4cc3-c3ccccc3)cc2)CCC1` + C=CCn1c(=O)c2cnc(Nc3ccc(N4CCN(C)CC4)cc3)nc2n1-c1cccc(C(C)(C)O)n1 [MK1775] (first compound 0.4 µM, partner dose 0.02 µM) was tested. Which “cleaved PARP positive nuclei fraction” value did it give?
Its value is 215%.

How did the “cleaved PARP positive nuclei fraction” value turn out when `C[C@]1(O)C[C@@H](c2nc(-c3ccc4ccc(-c5ccccc5)nc4c3)c3c(N)nccn32)C1` + O=C(Nc1cccc(Cl)c1)Nc1ncc(CCNc2ncnc3ccsc23)s1 [SNS314] (first compound 0.4 µM, partner dose 0.0008 µM) was run?
Its value is 176%.

With `CC1(C)CCC(c2ccc(Cl)cc2)=C(CN2CCN(c3ccc(C(=O)NS(=O)(=O)c4ccc(N[C@H](CCN5CCOCC5)CSc5ccccc5)c(S(=O)(=O)C(F)(F)F)c4)cc3)CC2)C1` + O=C1NC(=O)/C(=C/c2ccc(-c3ccc(F)cc3O)o2)S1 [AS252424] (first compound 0.4 µM, partner dose 1 µM) as the compound, how does the “cleaved PARP positive nuclei fraction” value read?
Its value is 197%.

For `CC1(C)CCC(c2ccc(Cl)cc2)=C(CN2CCN(c3ccc(C(=O)NS(=O)(=O)c4ccc(N[C@H](CCN5CCOCC5)CSc5ccccc5)c(S(=O)(=O)C(F)(F)F)c4)cc3)CC2)C1` + c1cc(-c2cnn3cc(-c4ccc(OCCN5CCCCC5)cc4)cnc23)ccn1 [Dorsomorphin] (first compound 0.4 µM, partner dose 0.4 µM), which “cleaved PARP positive nuclei fraction” value is on record?
Its value is 268%.

How did the “cleaved PARP positive nuclei fraction” value turn out when `CN(c1ncccc1CNc1nc(Nc2ccc3c(c2)CC(=O)N3)ncc1C(F)(F)F)S(C)(=O)=O` + CCN(CC)CCCCNc1ncc2cc(-c3cc(OC)cc(OC)c3)c(NC(=O)NC(C)(C)C)nc2n1 [PD173074] (first compound 0.08 µM, partner dose 0.1 µM) was run?
The value was 103%.
